Results are given in words; binding and its absence hold for the method and conditions named. Some entries that bind do so weakly or less than the wild type. One block for each binder: values may come before it.
Experiments:
BMP-3 [1] = biological target: T1, BMP-3 (UniProt P12645); assay: affinity chromatography, immobilised BMP-12, load in 1.2 M NaCl
T1 sequence (looked up): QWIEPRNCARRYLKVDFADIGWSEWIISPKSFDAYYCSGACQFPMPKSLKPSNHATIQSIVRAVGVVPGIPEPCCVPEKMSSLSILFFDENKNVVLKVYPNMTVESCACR

BMP-12 [2] = biological target: T2, BMP-12 (UniProt Q7Z4P5 322-450, limits assumed); assay: HPLC column of BMP affinity resin, loaded with BMP-12
T2 construct: also called BMP12/GDF7
T2 sequence (looked up): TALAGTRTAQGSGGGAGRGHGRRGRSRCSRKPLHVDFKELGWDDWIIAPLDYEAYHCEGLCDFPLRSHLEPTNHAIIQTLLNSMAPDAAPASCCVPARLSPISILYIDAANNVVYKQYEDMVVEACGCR

BMP-12 [3] = biological target: T2, BMP-12; assay: affinity chromatography, immobilised BMP-12
BMP-3 [4] = biological target: T1, BMP-3; assay: HPLC column of BMP affinity resin, loaded with BMP-3
BMP-12 [5] = biological target: T2, BMP-12; assay: affinity chromatography, immobilised BMP-2

- binding (BMP-3 [1]): binds
- binding (BMP-12 [2]): binds
- binding (BMP-12 [3]): binds
- binding (BMP-3 [4]): binds
B1: BMP-12 (ligand, UniProt Q7Z4P5 322-450, looked up)
chain: T2 sequence (looked up)

- binding (BMP-12 [2]): binds
- binding (BMP-12 [5]): binds
B2: BMP-2 (ligand, UniProt P12643 283-396, looked up)
chain: QAKHKQRKRLKSSCKRHPLYVDFSDVGWNDWIVAPPGYHAFYCHGECPFPLADHLNSTNHAIVQTLVNSVNSKIPKACCVPTELSAISMLYLDENEKVVLKNYQDMVVEGCGCR
